Bridges are numbered along the chain shown (N, C = ends).
Test: peptide made by a vendor (Fmoc solid-phase peptide synthesis)
Details: analytical RP-HPLC

Ac-CPPYLPKYLCDLI-NH2 (disulfide 1-10; lactam 7-11; SMILES CC[C@H](C)[C@H](NC(=O)[C@H](CC(C)C)NC(=O)[C@@H]1CC(=O)NCCCC[C@@H]2NC(=O)[C@@H]3CCCN3C(=O)[C@H](CC(C)C)NC(=O)[C@H](Cc3ccc(O)cc3)NC(=O)[C@@H]3CCCN3C(=O)[C@@H]3CCCN3C(=O)[C@@H](NC(C)=O)CSSC[C@H](NC(=O)[C@H](CC(C)C)NC(=O)[C@H](Cc3ccc(O)cc3)NC2=O)C(=O)N1)C(N)=O)
final HPLC purity (oxidative folding step): 100.00% | final HPLC purity (whole synthesis): 96.14%

From paper PMC8607231 (Frontiers in Pharmacology, 2021)
